In data set [1] the target is AP1 wild type (Arabidopsis thaliana) (UniProt P35631). As to the kind of experiment: EMSA. Particulars: Naked DNA EMSA: 7.2 mM HEPES pH 7.3, 1.2 mM EDTA, 0.25 mg/ml BSA, 0.7 mM DTT, 60 ug/ml salmon sperm DNA, 1.3 mM spermidine, 2.5% CHAPS, 8% glycerol, on ice, protein translated in vitro, label: DY682, probe letters rebuilt from the primers and the genome, part of a longer molecule.

By UniProt entry, the sequences of proteins in these tests, tags left out. Chains listed by the source or under a name are the forms on record and can include a tag or linker.
UniProt P35631, other isoform, or with tags, fused parts or gaps: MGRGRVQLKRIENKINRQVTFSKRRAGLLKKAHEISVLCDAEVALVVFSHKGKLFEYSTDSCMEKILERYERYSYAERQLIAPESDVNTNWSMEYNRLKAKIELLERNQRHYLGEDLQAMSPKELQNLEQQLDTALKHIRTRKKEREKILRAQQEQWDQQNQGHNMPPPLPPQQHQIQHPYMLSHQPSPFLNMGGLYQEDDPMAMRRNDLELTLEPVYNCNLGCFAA

The target of data set [2] is AP1tet del144-172 (Arabidopsis thaliana) (UniProt P35631). The data set can be described thus: EMSA. Particulars: Naked DNA EMSA: 7.2 mM HEPES pH 7.3, 1.2 mM EDTA, 0.25 mg/ml BSA, 0.7 mM DTT, 60 ug/ml salmon sperm DNA, 1.3 mM spermidine, 2.5% CHAPS, 8% glycerol, on ice, protein translated in vitro, label: DY682, probe letters rebuilt from the primers and the genome, part of a longer molecule.

The mark [3] stands for this setting: Kd determined, value only in figure.
Setting [4] is: Kd lower than AP1 WT, value only in figure.

For at least one entry, the source does not settle the construct or the ends of the probe. The comparison behind a weaker result is the experiment's own reference, which may not be listed here. For part of these data: At least one verdict rests on a figure or table, not on a statement of the authors.

In the case of “ATGTATATGGAGATCATGAGCAAAAGTAGTAAGCAACAAAAGGAAAAGTAGAAACTTAACAAATTGAGCAAAACTAAAAGAATCTAAGCTCGTGGCCTTGAAGACAACATCCCAAGAATATCCATTATCTTCGCCTTTGTTACATCTCCACCCTTCTTTTCTTCC (double strand) [AP1 promoter DNA]”, the binding result in data set [1] (setting [3]) and in data set [2] (setting [4]) was “binds” throughout.

Take “ATTGCTTTTTAAAGTGTACATATACATTTGTACAAATCTCACAACACTTCTCTCAAAGTACATATAAACATGTCAGCTTCATTACTTGAAATATTCTCTTTCTAATATACTCTCAGACTCAACTATATACCCTCCAATTATTGTGTACCAAAGACCCTCATAGGATTTATTCAAA (double strand) [SEP3 TSS DNA]”: the binding result in data set [1] (very weak or not seen, Kd not estimable, binding seen at higher protein) is on record as “binds more weakly”; in data set [2] (very weak signal, Kd not estimable), “binds more weakly”.

With “TGGGTATAAATCCAATAGACATTTGATAGTATTAAAATTGTAACCATTGGATTAAATTTAAACGTGATGGATGTAACTAAATGACTTGTCCGAGTAACATCACAACGTTCCATACTTTCCTTATTTGGAATATAATTAAATTTACCATTTATTCTTTTTTCTTGAGTTTCCTGTATATG (double strand) [AG intron DNA]”, the binding result in data set [1] (setting [3]) and in data set [2] (setting [4]) was “binds” throughout.

For the origin of these results see paper PMC12687491.
